# Non-standard residues stand in square brackets, D forms with d. Phe(4-CF3) = N[C@@H](Cc1ccc(C(F)(F)F)cc1)C(=O)O; 1Nal = N[C@@H](Cc1cccc2ccccc12)C(=O)O; 2Nal = N[C@@H](Cc1ccc2ccccc2c1)C(=O)O; dCit = NC(=O)NCCC[C@@H](N)C(=O)O; hArg = N=C(N)NCCCC[C@H](N)C(=O)O; dTic = O=C(O)[C@H]1Cc2ccccc2CN1; Cha = N[C@@H](CC1CCCCC1)C(=O)O; aThr = C[C@H](O)[C@H](N)C(=O)O; Agb = N=C(N)NCC[C@H](N)C(=O)O; Agp = N=C(N)NC[C@H](N)C(=O)O; Chg = N[C@H](C(=O)O)C1CCCCC1; dOrn = NCCC[C@@H](N)C(=O)O; dDab = NCC[C@@H](N)C(=O)O; hSer = N[C@@H](CCO)C(=O)O; Nle = CCCC[C@H](N)C(=O)O; Orn = NCCC[C@H](N)C(=O)O; Dab = NCC[C@H](N)C(=O)O; Abu = CC[C@H](N)C(=O)O
# Assay: general procedure: Fmoc solid-phase peptide synthesis; 2-chlorotrityl resin (preloaded Fmoc-amino acid)
# Conditions: whole synthesis, %-purity after prep. HPLC, analytical methods A-D
row,Substance,final purity (method not given)
1,cyclo(-1Nal-^DArg-Arg-Trp-^DPro-Pro((3S)OH)—),86%
2,cyclo(-3Pal-^DPhe-Trp-Arg-^DPro((4R)NH2)-Tic-),95%
3,cyclo(-Agb-^DPhe-Trp-Arg-^DPro((4R)NH2)-Tic-),96%
4,cyclo(-Ala(1Pyraz)-^DPhe-Trp-Arg-^DPro((4R)NH2)-Tic-),97%
5,cyclo(-Ala(Tet)-^DPhe-Trp-Arg-^DPro((4R)NH2)-Tic-),94%
6,cyclo(-Ala-^DPhe-Trp-Arg-^DPro((4R)NH2)-Tic-),94%
7,cyclo(-Arg-^DPhe-Trp-Arg-^DPro((4R)NH2)-Oic-),91%
8,cyclo(-Arg-^DPhe-Trp-Arg-^DPro((4R)NH2)-Tic-),92%
9,cyclo(-Arg-^DPhe-Trp-Arg-^DPro((4S)NH2)-Tic-),93%
10,cyclo(-Arg-^DPhe-Trp-Arg-^DPro-(4S)-Hyp(Bn)-),91%
11,cyclo(-Arg-^DPhe-Trp-hArg-^DPro((4R)N H2)-Tic-),88%
12,cyclo(-His-^DTrp-His-Trp-^DPro-Pro((4S)NHBz)-),95%
13,cyclo(-Ile-^DArg-Arg-2Nal-^DPro-Pro((3S)OH)—),91%
14,cyclo(-Ile-^DArg-Arg-Trp-^DPip-Pro((3S)OH)—),92%
15,cyclo(-Ile-^DArg-Arg-Trp-^DPip-Thr-),98%
16,cyclo(-Ile-^DArg-Arg-Trp-^DPro((4R)NH2)-Thr-),72%
17,cyclo(-Ile-^DArg-Arg-Trp-^DPro((4S)OH)-Thr-),85%
18,cyclo(-Ile-^DArg-Arg-Trp-^DPro-Mor-),74%
19,cyclo(-Ile-^DArg-Arg-Trp-^DPro-Pro((3S)OH)—),98%
20,cyclo(-Ile-^DArg-Orn(A41)-Trp-^DPro-Thr-),93%
21,cyclo(-Ile-^DArg-Orn(A56)-Trp-^DPro-Thr-),95%
22,cyclo(-Ile-^DArg-Orn(Ar2)-Trp-^DPro-Thr-),93%
23,cyclo(-Ile-^DArg-Orn(Ar4)-Trp-^DPro-Thr-),84%
24,cyclo(-Ile-^DArg-Orn(Ar7)-Trp-^DPro-Thr-),97%
25,cyclo(-Orn(A56)-^DPhe-Trp-Arg-^DPro((4R)NH2)-Tic-),96%
26,cyclo(-Orn(Ar2)-^DPhe-Trp-Arg-^DPro((4R)NH2)-Tic-),90%
27,cyclo(-Pip-^DPhe-Trp-Arg-^DPro((4R)NH2)-Tic-),92%

row,Substance,final purity (method not given)
1,cyclo(-Trp-^D3Pal-Trp-Arg-^DPro((4R)NH2)-Tic-),80%
2,cyclo(-Trp-^DPhe-Trp-Arg-^DPro((4R)NH2)-(4S)-Hyp(Bn)-),86%
3,cyclo(-Trp-^DPhe-Trp-Arg-^DPro((4R)NH2)-Oic-),94%
4,cyclo(-Trp-^DPhe-Trp-Arg-^DPro((4R)NH2)-Tic-),90%
5,cyclo(-Trp-^DPhe-Trp-Arg-^DPro((4S)NH2)-Tic-),95%
6,cyclo(-Trp-^DPhe-Trp-Arg-^DPro((4S)OH)-(4S)-Hyp(Bn)-),89%
7,cyclo(-Trp-^DPhe-Trp-Arg-^DPro-Mor-),93%
8,cyclo(-Trp-^DPhe-Trp-Arg-^DPro-Pro((4R)NH2)—),95%
9,cyclo(-Trp-^DPhe-Trp-Arg-^DPro-Pro((4S)F)—),96%
10,cyclo(-Trp-^DPhe-Trp-Arg-^DPro-Pro((4S)NH2)—),>98%
11,cyclo(-Trp-^DPhe-Trp-Dab-^DPro((4R)NH2)-Tic-),89%
12,cyclo(-Trp-^DPhe-Trp-His-^DPro((4R)NH2)-Tic-),92%
13,cyclo(-Trp-^DPhe-Trp-Lys-^DPro((4R)NH2)-Tic-),93%
14,cyclo(-Trp-^DPhe-Trp-Orn(A56)-^DPip-Pro((3S)OH)—),93%
15,cyclo(-Trp-^DPhe-Trp-Orn(A56)-^DPro((4R)NH2)-Tic-),93%
16,cyclo(-Trp-^DPhe-Trp-Orn(A56)-^DPro((4R)NH2)-Tiq-),95%
17,cyclo(-Trp-^DPhe-Trp-Orn(Ar7)-^DPro((4R)NH2)-Tic-),92%
18,cyclo(-Trp-^DPhe-Trp-Orn-^DPro((4R)NH2)-Tic-),92%
19,cyclo(-Tyr-^DPhe-Trp-Arg-^DPro((4R)NH2)-Tic-),92%
20,cyclo(-hArg-^DPhe-Trp-Arg-^DPro((4R)NH2)-Tic-),96%
21,cyclo(I[dCit]RW[dP]T),88%
22,cyclo(I[dDab]RW[dP]T),94%
23,cyclo(I[dH]RW[dP]T),95%
24,cyclo(I[dK]RW[dP]T),92%
25,cyclo(I[dOrn]RW[dP]T),91%
26,cyclo(I[dR]KW[dP]T),>98%
27,cyclo(I[dR]RF[dP]T),>98%

row,Substance,final purity (method not given)
1,cyclo(I[dR]RI[dP]T),97%
2,cyclo(I[dR]RW[dP]S),90%
3,cyclo(I[dR]RW[dP]T),97%
4,cyclo(I[dR]RW[dP][aThr]),97%
5,cyclo(I[dR]RW[dP][hSer]),92%
6,cyclo(I[dR]RW[dTic]T),94%
7,cyclo(I[dR]RY[dP]T),98%
8,cyclo(I[dR]R[1Nal][dP]T),91%
9,cyclo(I[dR]R[2Nal][dP]T),92%
10,cyclo(I[dR]R[Phe(4-CF3)][dP]T),97%
11,cyclo(I[dR]WR[dP]T),98%
12,cyclo(I[dR][Agb]W[dP]T),98%
13,cyclo(I[dR][Agp]W[dP]T),87%
14,cyclo(I[dR][Dab]W[dP]T),>98%
15,cyclo(I[dR][Orn]W[dP]T),94%
16,cyclo(I[dR][hArg]W[dP]T),91%
17,cyclo(I[dT]RW[dP]T),95%
18,cyclo(L[dR]RW[dP]T),96%
19,cyclo(T[dR]WR[dP]T),95%
20,cyclo(V[dR]RW[dP]T),88%
21,cyclo(W[dR]RW[dP]T),95%
22,cyclo([1Nal][dR]RW[dP]T),97%
23,cyclo([Abu][dR]RW[dP]T),81%
24,cyclo([Cha][dR]RW[dP]T),94%
25,cyclo([Chg][dR]RW[dP]T),96%
26,cyclo([Nle][dR]RW[dP]T),96%

# — patent US9637520B2 (POLYPHOR AG, priority 2010, dated 2017)
